Laboratory results from the supplement of paper PMC10849652.
The list shows a part of the results.

Sequences of proteins named here, by UniProt entry; tags and fusion partners are left off. A change or cut given only in a name is not applied to a line headed by its entry.
UniProt Q9BZ67: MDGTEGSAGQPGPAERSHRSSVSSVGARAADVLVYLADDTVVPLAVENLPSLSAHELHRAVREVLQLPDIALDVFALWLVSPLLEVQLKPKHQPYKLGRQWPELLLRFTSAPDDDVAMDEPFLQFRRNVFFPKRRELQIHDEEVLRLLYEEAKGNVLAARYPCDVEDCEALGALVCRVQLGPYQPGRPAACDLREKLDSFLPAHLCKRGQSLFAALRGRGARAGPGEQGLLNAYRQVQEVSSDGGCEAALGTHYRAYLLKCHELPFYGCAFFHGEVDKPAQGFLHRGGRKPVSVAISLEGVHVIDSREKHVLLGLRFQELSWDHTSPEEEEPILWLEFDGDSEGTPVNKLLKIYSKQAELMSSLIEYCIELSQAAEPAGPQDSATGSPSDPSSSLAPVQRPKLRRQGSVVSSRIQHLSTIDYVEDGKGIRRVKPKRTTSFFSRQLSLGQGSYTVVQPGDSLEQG
UniProt P06241, whole entry, looked up: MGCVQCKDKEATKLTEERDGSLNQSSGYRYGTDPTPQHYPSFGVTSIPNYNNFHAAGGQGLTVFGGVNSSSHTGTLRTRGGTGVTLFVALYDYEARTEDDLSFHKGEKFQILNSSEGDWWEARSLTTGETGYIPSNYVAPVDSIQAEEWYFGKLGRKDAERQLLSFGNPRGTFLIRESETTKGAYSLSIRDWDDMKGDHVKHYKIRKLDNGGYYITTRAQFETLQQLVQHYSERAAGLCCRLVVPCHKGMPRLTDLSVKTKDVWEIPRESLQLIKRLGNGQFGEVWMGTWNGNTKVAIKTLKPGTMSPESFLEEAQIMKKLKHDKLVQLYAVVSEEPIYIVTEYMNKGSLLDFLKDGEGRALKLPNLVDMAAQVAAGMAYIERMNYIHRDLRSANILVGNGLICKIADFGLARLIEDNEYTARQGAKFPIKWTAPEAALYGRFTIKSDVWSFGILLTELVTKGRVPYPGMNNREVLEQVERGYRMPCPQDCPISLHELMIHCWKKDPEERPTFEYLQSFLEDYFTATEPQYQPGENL
UniProt P28676: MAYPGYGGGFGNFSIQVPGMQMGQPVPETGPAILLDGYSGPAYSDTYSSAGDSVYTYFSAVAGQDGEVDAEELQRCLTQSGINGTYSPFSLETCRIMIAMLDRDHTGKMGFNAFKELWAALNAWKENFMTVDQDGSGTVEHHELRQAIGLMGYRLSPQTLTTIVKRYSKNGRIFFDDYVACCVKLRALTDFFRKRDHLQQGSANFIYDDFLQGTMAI
UniProt Q9H840: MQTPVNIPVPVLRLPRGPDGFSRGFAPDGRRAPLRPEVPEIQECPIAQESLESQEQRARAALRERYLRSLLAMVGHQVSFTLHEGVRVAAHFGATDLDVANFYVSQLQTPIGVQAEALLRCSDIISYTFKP
UniProt Q06547, whole entry, looked up: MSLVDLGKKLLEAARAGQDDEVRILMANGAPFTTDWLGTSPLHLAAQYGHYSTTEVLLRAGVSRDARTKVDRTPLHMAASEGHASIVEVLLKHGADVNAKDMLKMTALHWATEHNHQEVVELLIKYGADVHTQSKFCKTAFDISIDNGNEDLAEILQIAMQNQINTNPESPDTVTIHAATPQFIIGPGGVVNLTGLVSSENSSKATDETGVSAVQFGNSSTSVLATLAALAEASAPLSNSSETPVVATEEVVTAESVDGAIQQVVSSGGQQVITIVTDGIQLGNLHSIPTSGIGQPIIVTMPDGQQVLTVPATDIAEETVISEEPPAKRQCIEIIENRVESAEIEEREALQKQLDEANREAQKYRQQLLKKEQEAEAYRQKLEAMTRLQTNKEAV
UniProt A2VDF0: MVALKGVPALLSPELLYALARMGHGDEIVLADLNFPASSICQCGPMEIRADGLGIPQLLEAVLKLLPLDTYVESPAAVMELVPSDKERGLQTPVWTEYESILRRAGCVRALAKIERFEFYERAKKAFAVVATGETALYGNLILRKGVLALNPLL
UniProt O75879: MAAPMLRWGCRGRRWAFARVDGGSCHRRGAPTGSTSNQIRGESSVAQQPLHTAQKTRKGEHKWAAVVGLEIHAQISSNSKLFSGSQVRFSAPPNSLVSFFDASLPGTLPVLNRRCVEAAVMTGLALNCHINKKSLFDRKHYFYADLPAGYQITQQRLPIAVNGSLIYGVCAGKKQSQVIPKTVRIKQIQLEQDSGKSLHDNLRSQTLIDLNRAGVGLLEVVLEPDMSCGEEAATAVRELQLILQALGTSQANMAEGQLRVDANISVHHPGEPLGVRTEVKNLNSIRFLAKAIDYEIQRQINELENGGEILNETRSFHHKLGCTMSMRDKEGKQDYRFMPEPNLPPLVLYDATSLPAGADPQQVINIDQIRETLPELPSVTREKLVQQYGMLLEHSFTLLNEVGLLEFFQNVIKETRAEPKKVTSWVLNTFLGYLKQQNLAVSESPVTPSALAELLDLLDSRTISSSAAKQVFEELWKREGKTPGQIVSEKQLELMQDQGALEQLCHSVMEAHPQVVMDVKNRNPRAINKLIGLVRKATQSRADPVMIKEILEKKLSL
UniProt Q9HCG7: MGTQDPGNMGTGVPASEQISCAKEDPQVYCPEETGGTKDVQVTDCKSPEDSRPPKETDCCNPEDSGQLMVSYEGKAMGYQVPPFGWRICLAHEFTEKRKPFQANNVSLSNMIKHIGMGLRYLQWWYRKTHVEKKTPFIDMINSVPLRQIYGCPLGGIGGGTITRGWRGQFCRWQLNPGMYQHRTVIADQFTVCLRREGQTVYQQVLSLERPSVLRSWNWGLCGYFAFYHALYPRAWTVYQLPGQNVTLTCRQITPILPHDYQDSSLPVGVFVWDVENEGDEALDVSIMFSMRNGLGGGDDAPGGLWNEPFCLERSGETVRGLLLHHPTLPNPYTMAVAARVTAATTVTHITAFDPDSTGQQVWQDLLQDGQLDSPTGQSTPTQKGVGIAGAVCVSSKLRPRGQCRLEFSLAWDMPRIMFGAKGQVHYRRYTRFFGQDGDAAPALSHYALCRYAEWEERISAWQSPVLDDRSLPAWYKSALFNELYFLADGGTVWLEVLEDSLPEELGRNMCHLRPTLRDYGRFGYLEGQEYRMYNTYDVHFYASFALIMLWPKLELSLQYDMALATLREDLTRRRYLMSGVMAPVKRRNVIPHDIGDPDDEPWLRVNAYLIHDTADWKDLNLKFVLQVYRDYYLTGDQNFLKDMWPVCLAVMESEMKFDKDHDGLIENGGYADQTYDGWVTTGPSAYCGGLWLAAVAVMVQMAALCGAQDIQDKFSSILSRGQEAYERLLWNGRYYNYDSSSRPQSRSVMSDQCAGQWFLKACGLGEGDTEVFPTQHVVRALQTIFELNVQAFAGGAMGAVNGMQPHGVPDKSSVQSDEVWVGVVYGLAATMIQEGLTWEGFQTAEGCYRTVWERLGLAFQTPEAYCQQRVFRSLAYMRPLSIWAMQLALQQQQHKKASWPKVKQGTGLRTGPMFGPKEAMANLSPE
UniProt Q9H334: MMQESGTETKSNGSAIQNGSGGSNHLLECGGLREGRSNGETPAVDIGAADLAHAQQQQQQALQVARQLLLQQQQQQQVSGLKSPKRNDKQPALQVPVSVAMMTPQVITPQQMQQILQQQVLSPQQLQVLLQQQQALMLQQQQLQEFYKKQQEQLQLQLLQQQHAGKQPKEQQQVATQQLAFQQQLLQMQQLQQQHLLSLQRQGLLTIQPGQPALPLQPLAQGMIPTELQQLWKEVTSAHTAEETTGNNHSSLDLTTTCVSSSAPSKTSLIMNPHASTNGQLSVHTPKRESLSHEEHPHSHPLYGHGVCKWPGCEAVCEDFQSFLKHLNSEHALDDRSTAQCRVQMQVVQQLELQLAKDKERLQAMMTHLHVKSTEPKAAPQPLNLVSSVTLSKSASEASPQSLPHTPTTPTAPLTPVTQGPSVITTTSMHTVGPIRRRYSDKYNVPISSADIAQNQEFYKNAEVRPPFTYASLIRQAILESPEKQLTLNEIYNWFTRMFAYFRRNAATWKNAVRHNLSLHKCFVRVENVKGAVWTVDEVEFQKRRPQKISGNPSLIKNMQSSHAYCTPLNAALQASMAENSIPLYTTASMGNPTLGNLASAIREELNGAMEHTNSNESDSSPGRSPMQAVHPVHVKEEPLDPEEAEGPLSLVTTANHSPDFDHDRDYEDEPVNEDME
UniProt P50440: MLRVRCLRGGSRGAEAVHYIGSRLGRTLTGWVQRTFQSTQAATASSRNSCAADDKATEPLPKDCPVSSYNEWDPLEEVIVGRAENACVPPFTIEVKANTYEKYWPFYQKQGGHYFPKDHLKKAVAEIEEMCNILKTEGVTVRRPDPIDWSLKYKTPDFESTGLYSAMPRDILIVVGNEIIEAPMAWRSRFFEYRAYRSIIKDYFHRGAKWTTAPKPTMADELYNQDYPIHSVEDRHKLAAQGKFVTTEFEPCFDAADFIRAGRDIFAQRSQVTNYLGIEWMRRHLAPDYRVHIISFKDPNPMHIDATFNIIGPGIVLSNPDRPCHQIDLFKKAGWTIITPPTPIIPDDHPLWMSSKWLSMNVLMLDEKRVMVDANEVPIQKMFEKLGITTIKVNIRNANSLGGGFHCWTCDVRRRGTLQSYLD
UniProt Q86SR1: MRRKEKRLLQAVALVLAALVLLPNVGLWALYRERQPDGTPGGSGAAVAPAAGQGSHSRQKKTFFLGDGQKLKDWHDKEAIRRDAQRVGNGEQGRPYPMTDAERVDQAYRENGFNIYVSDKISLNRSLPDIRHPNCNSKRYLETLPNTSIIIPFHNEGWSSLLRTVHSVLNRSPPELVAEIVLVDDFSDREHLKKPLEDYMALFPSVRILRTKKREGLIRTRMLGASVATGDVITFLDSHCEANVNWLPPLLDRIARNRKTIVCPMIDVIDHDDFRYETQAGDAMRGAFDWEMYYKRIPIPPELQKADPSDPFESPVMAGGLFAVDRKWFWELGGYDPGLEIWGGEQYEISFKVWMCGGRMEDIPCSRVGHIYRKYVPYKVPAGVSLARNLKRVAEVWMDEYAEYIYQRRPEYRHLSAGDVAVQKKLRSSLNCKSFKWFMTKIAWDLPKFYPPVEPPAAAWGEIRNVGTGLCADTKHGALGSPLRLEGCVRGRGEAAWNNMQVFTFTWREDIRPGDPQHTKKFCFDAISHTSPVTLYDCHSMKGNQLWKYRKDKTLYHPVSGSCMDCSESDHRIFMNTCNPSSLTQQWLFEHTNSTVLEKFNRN
UniProt Q9UN86: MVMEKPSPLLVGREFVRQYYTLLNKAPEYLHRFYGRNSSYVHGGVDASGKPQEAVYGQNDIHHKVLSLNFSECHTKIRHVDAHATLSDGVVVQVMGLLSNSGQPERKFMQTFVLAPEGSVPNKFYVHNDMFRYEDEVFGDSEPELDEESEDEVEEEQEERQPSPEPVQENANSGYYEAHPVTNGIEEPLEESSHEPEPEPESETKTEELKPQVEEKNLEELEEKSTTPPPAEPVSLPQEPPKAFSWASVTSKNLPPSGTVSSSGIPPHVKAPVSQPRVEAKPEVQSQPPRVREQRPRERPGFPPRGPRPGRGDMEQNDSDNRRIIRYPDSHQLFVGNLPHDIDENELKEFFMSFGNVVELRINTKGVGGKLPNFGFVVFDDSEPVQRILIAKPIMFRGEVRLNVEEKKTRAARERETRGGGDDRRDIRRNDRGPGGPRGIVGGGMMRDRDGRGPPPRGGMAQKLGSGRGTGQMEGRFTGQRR
UniProt P27469: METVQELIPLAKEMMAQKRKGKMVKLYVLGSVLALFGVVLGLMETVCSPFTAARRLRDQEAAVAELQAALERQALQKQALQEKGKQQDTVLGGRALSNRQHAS

Assays:
Test in all cases: log2 fold change, soluble protein after heating vs DMSO (PISA); higher = thermal stabilisation; K562 lysate, 10 uM; active = over 0.2 and 3.5 SD of the protein, either way, in both replicates (recomputed)
[1] = compound: CN1CC[C@H](c2c(O)cc(O)c3c(=O)cc(-c4ccccc4Cl)oc23)[C@H](O)C1 [alvocidib]
Outline: (§1)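 K562 pellets were dounce-homogenised in PBS pH 7.4 containing 1 mM MgCl2, and the crude extract, at 1 mg/mL protein, was exposed to 10 μM compound for 30 min. Aliquots were heated for 3 min across 48°C-58°C, pooled, brought to 0.5% NP-40 at 4°C and spun at 21,000xg for 90 min, with the supernatant taken as soluble protein. TMTpro 16plex LC-MS/MS with equalised channel sums quantified that protein. Values are log-two fold changes in thermal stability relative to solvent controls, taken from duplicates.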

[2] = compound: CNC(=O)C1=CC=CC=C1NC2=NC(=NC=C2Cl)NC3=C(C=C(C=C3)N4CCOCC4)OC
Outline: as §1

[3] = compound: CNC(=O)c1ccc(Nc2ncc(C(F)(F)F)c(NCc3nccnc3N(C)S(C)(=O)=O)n2)cc1 [defactinib]
Outline: as §1

[4] = compound: CNc1nc(-c2ccc3c(N)n[nH]c3c2)cc(N2C[C@@H](C(=O)NC3CCCCC3)CC[C@H]2C)n1
Outline: as §1

[5] = compound: COC(=O)N[C@@H](C)CNc1nccc(-c2cn(C(C)C)nc2-c2cc(Cl)cc(NS(C)(=O)=O)c2F)n1 [encorafenib]
Outline: as §1

[6] = compound: COC(=O)[C@H](CCSC)NC(=O)C1=C(C=C(C=C1)NC[C@H](CS)N)C2=CC=CC=C2
Outline: as §1

[7] = compound: COc1cc(Nc2ncc3c(n2)-c2ccc(Cl)cc2C(c2c(F)cccc2OC)=NC3)ccc1C(=O)O [alisertib]
Outline: as §1

[8] = compound: COc1cc2ncnc(Nc3ccc(F)c(Cl)c3)c2cc1OCCCN1CCOCC1 [gefitinib]
Outline: as §1

[9] = compound: CS(=O)(=O)N1CCN(Cc2cc3nc(-c4cccc5[nH]ncc45)nc(N4CCOCC4)c3s2)CC1 [pictilisib]
Outline: as §1

[10] = compound: C[C@@H](Oc1cc(-c2cnn(C3CCNCC3)c2)cnc1N)c1c(Cl)ccc(F)c1Cl [crizotinib]
Outline: as §1

[11] = compound: C[C@H](C1=CC=C(C=C1)C(=O)NC2=C3C=CNC3=NC=C2)N
Outline: as §1

[12] = compound: C[C@H](Nc1ncnc2nc[nH]c12)c1cc2cccc(Cl)c2c(=O)n1-c1ccccc1 [duvelisib]
Outline: as §1

[13] = compound: Cc1cc(Nc2cc(CN3CCOCC3)c3nc(C)c(Cc4ccc(Cl)cc4F)n3n2)n[nH]1 [gandotinib]
Outline: as §1

[14] = compound: Cc1cc(Nc2cc(N3CCN(C)CC3)nc(Sc3ccc(NC(=O)C4CC4)cc3)n2)n[nH]1 [tozasertib]
Outline: as §1

[15] = compound: Cc1ccc(-n2nc(C(C)(C)C)cc2NC(=O)Nc2ccc(OCCN3CCOCC3)c3ccccc23)cc1 [doramapimod]
Outline: as §1

[16] = compound: Cc1ccc(NC(=O)c2ccc(CN3CC[C@H](N(C)C)C3)c(C(F)(F)F)c2)cc1Nc1nccc(-c2cncnc2)n1 [bafetinib]
Outline: as §1

[17] = compound: Cc1cccc(CC(=O)N2CCc3c2ccc(-c2cn(C)c4ncnc(N)c24)c3F)n1
Outline: as §1

[18] = compound: CN1CCc2c(c3ccccc3n2Cc2ccc(C(=O)NO)cc2)C1 [Tubastatin A]
Outline: as §1

[19] = compound: COc1cc2nc(-c3cc(F)ccc3O)nc(N[C@@H]3CNC[C@H]3C(C)(C)O)c2cc1OC
Outline: as §1

[20] = compound: CS(=O)(=O)CCNCc1ccc(-c2ccc3ncnc(Nc4ccc(OCc5cccc(F)c5)c(Cl)c4)c3c2)o1 [lapatinib]
Outline: as §1

| Target | log2 fold change [1] | log2 fold change [2] | log2 fold change [3] | log2 fold change [4] | log2 fold change [5] | log2 fold change [6] | log2 fold change [7] | log2 fold change [8] | log2 fold change [9] | log2 fold change [10] | log2 fold change [11] | log2 fold change [12] | log2 fold change [13] | log2 fold change [14] | log2 fold change [15] | log2 fold change [16] | log2 fold change [17] | log2 fold change [18] | log2 fold change [19] | log2 fold change [20] |
| --- | --- | --- | --- | --- | --- | --- | --- | --- | --- | --- | --- | --- | --- | --- | --- | --- | --- | --- | --- | --- |
| FRMD8 (UniProt Q9BZ67) | inactive: 0.059 | inactive: 0.071 | inactive: -0.039 | inactive: -0.018 | inactive: 0.008 | inactive: 0.033 | inactive: 0.038 | inactive: 0.054 | inactive: 0 | inactive: 0.054 | inactive: 0.098 | inactive: 0.021 | inactive: 0.036 | inactive: -0.068 | inactive: 0.073 | inactive: -0.049 | inactive: 0.054 | – | – | – |
| FYN (UniProt P06241) | inactive: -0.078 | inactive: -0.009 | inactive: 0.038 | inactive: -0.069 | inactive: 0.092 | inactive: -0.121 | – | – | inactive: -0.201 | inactive: 0.12 | inactive: -0.092 | inactive: -0.019 | active: 0.422 | inactive: 0.054 | inactive: -0.04 | inactive: 0.198 | inactive: -0.057 | inactive: 0.03 | inactive: 0.005 | inactive: 0.007 |
| GCA (UniProt P28676) | inactive: -0.016 | inactive: -0.035 | – | – | – | – | inactive: -0.038 | inactive: -0.197 | – | – | inactive: -0.091 | – | inactive: -0.073 | – | – | – | inactive: 0.057 | – | inactive: -0.253 | inactive: 0.016 |
| GEMIN7 (UniProt Q9H840) | inactive: 0.028 | – | – | – | – | – | inactive: 0.061 | inactive: -0.011 | inactive: 0.102 | inactive: -0.034 | inactive: -0.25 | – | inactive: 0.079 | – | inactive: -0.087 | inactive: 0.001 | inactive: 0.222 | inactive: 0.008 | – | – |
| GABPB1 isoform 3 (UniProt Q06547) | inactive: -0.013 | inactive: -0.055 | inactive: -0.025 | inactive: -0.039 | inactive: -0.006 | inactive: 0.099 | – | – | inactive: -0.086 | inactive: 0.001 | inactive: -0.007 | inactive: 0.068 | inactive: 0 | inactive: -0.001 | inactive: -0.029 | inactive: -0.149 | inactive: 0.043 | active: -0.299 | inactive: 0.016 | inactive: -0.057 |
| FUOM (UniProt A2VDF0) | inactive: -0.028 | inactive: 0.082 | inactive: -0.059 | inactive: 0.075 | inactive: -0.071 | inactive: -0.046 | inactive: -0.026 | inactive: -0.034 | – | – | inactive: -0.061 | inactive: 0.166 | inactive: 0.235 | inactive: 0.09 | – | – | inactive: 0.212 | inactive: 0.119 | inactive: 0.021 | inactive: 0.017 |
| GATB (UniProt O75879) | inactive: -0.028 | – | inactive: 0.147 | inactive: -0.011 | – | – | inactive: 0.052 | inactive: -0.003 | – | – | inactive: 0.011 | inactive: -0.087 | inactive: 0.001 | – | – | – | inactive: 0.128 | inactive: -0.128 | inactive: -0.075 | inactive: -0.169 |
| GBA2 (UniProt Q9HCG7) | inactive: -0.046 | inactive: 0.073 | – | inactive: -0.098 | inactive: -0.052 | inactive: 0.079 | inactive: -0.004 | inactive: 0.2 | inactive: -0.012 | inactive: 0.014 | inactive: -0.094 | inactive: 0.06 | inactive: -0.009 | inactive: -0.138 | inactive: 0.055 | inactive: -0.199 | inactive: 0.054 | inactive: -0.032 | inactive: 0.013 | inactive: -0.062 |
| FOXP1 (UniProt Q9H334) | inactive: -0.004 | inactive: 0.014 | inactive: -0.013 | inactive: -0.021 | inactive: 0.1 | inactive: 0.01 | inactive: 0.007 | inactive: -0.067 | inactive: -0.079 | inactive: -0.016 | inactive: -0.003 | inactive: 0 | inactive: -0.095 | inactive: -0.043 | inactive: -0.045 | inactive: -0.006 | inactive: 0.042 | inactive: -0.101 | – | – |
| GAA (UniProt P10253) | inactive: -0.006 | inactive: -0.047 | active: -0.513 | – | inactive: 0.097 | inactive: -0.15 | inactive: -0.117 | inactive: -0.043 | inactive: 0.034 | inactive: -0.098 | inactive: -0.018 | – | inactive: 0.04 | inactive: -0.027 | inactive: -0.099 | inactive: 0.081 | inactive: -0.04 | inactive: 0.098 | inactive: 0.089 | inactive: 0.083 |
| FRMPD2 (UniProt Q68DX3) | inactive: -0.126 | inactive: 0.049 | inactive: -0.093 | – | inactive: 0.106 | inactive: 0 | inactive: 0.041 | inactive: -0.069 | – | – | inactive: -0.407 | – | inactive: -0.509 | inactive: 0.122 | – | – | inactive: 0.087 | – | inactive: 0.086 | inactive: -0.084 |
| GATM (UniProt P50440) | – | – | – | – | inactive: -0.424 | inactive: 0.308 | – | – | – | – | – | – | – | inactive: -0.011 | – | – | – | – | – | – |
| GARS1 (UniProt H7C443) | – | – | – | – | – | – | – | – | inactive: 0.014 | – | – | – | – | – | – | inactive: -0.184 | – | – | inactive: 0.065 | inactive: -0.075 |
| GALNT10 (UniProt Q86SR1) | – | inactive: 0.003 | inactive: -0.04 | inactive: 0.027 | inactive: 0.077 | inactive: 0.01 | – | – | inactive: 0.043 | – | – | inactive: 0.067 | – | inactive: -0.122 | – | inactive: -0.086 | – | – | inactive: 0.071 | inactive: 0.078 |
| G3BP2 isoform 2 (UniProt Q9UN86) | inactive: 0.023 | – | – | inactive: 0.058 | – | – | – | – | – | inactive: -0.08 | inactive: 0.244 | inactive: -0.171 | inactive: -0.058 | – | inactive: -0.024 | – | inactive: -0.103 | – | inactive: -0.049 | inactive: 0.056 |
| FUNDC2 (UniProt H7C0K8) | – | – | inactive: -0.048 | – | – | – | inactive: -0.112 | inactive: -0.087 | inactive: -0.244 | – | – | – | – | – | – | inactive: -0.102 | – | – | inactive: 0.096 | inactive: -0.128 |
| G0S2 (UniProt P27469) | – | inactive: -0.154 | – | – | inactive: -0.085 | inactive: -0.233 | inactive: 0.031 | inactive: 0 | – | inactive: -0.013 | – | – | – | inactive: -0.091 | inactive: 0.056 | – | – | – | – | – |

2 entries drawn at random from the list so far, as already listed:

| Target | log2 fold change [1] | log2 fold change [2] | log2 fold change [3] | log2 fold change [4] | log2 fold change [5] | log2 fold change [6] | log2 fold change [7] | log2 fold change [8] | log2 fold change [9] | log2 fold change [10] | log2 fold change [11] | log2 fold change [12] | log2 fold change [13] | log2 fold change [14] | log2 fold change [15] | log2 fold change [16] | log2 fold change [17] | log2 fold change [18] | log2 fold change [19] | log2 fold change [20] |
| --- | --- | --- | --- | --- | --- | --- | --- | --- | --- | --- | --- | --- | --- | --- | --- | --- | --- | --- | --- | --- |
| GARS1 (UniProt H7C443) | – | – | – | – | – | – | – | – | inactive: 0.014 | – | – | – | – | – | – | inactive: -0.184 | – | – | inactive: 0.065 | inactive: -0.075 |
| GATB (UniProt O75879) | inactive: -0.028 | – | inactive: 0.147 | inactive: -0.011 | – | – | inactive: 0.052 | inactive: -0.003 | – | – | inactive: 0.011 | inactive: -0.087 | inactive: 0.001 | – | – | – | inactive: 0.128 | inactive: -0.128 | inactive: -0.075 | inactive: -0.169 |
